Laboratory results taken from PubChem BioAssay AID504834 (National Center for Advancing Translational Sciences (NCATS), 2011).
Hit rate of the full screen: of about 320,000 compounds, about 22,000 (6.9%) were called active. This list was built around the results that the source calls inconclusive (neither active nor inactive); the mix of calls is not that of the screen. Calls come from the whole dose curve; as a rule, active = well fitted inhibition curve with a large enough effect; inconclusive = small, poorly fitted or top-dose-only effect, or another doubt; inactive = no such curve, though single readings can be large or run the other way. Potencies of inconclusive entries are doubtful fits and often do not repeat.
% is set by controls: 0 for no effect and ±100 for the full control effect; potency is the fitted concentration of half-maximal effect.

Test: Primary qHTS for delayed death inhibitors of the malarial parasite plastid, 96 hour incubation
Details: P. falciparum luciferase reporter growth; series mostly up to 28.7 µM; activity change, negative = inhibition: at the top concentration
Method in brief: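 Luminescence readout: decreased luciferase signal marks inhibited growth of reporter-expressing P. falciparum in infected red cells (2% hematocrit, 0.05% parasitemia final), exposed to compound two generations (96 h, 37 C, 5% CO2).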
For `Cc1ccc(-n2cc(-c3ccccc3)c3c(NN4CCOCC4)ncnc32)cc1`, the “activity change, negative = inhibition” value was inactive: 176%.
With `Cc1ccc(-n2nnnc2Sc2nc([N+](=O)[O-])nn2C)cc1` the “activity change, negative = inhibition” value was inactive: 20.3%.
With `Cc1ccc2c(c1)N(C)/C(=C/c1cccc[n+]1CCO)S2` the “activity change, negative = inhibition” value was inactive: 15.8%.
For `Cc1ccc(-c2csc3ncnc(NCCN4CCOCC4)c23)cc1`, the Potency was active: 10.4 µM.
In the case of `CCCCCC(O)CCc1n[nH]c(=S)n1-c1ccccc1` (stereo unspecified), the Potency is reported as inconclusive: 10.4 µM [inhibitor, partial curve, poor fit].
In the case of `CC1=C(C)C(=O)C(N2CCOCC2)=CC1=O`, the Potency is reported as inconclusive: 10.4 µM [inhibitor, single point].
In the case of `CCC(C)NC(=O)NC(=O)CSc1nnc(-c2ccccc2F)n1C1CC1` (stereo unspecified), the “activity change, negative = inhibition” value is reported as inactive: -7.04%.
For `COc1cc(O)c(C(CCN2CCCC2)c2ccc3c(c2)OCO3)c(OC)c1` (stereo unspecified), the Potency was active: 2.94 µM.
With `COc1ccc(-c2cn3nc4c(nc3n2)CCCC4)cc1` the “activity change, negative = inhibition” value was inactive: 51.6%.
In the case of `O=c1[nH]c(=O)n(Cc2ccco2)c2c1C(C(F)(F)F)(C(F)(F)F)N=C(CCc1ccccc1)N2`, the Potency is reported as active: 2.33 µM.
In the case of `COc1ccc(-c2cc(-c3cc(F)ccc3O)[nH]n2)cc1OC`, the Potency is reported as inconclusive: 9.28 µM [inhibitor, partial curve, poor fit].
For `CS/C(N)=N/N=C/c1ccc2c(c1)OCO2`, the “activity change, negative = inhibition” value was inactive: 180%.
For `CN(C)S(=O)(=O)c1ccc(C(=O)Nc2ccccc2SCCC#N)cc1`, the Potency was inconclusive: 18.5 µM [inhibitor, single point].
In the case of `Cc1ccc(NC(=O)CSc2nc(=O)n(CCCN3CCOCC3)c3c2CCCC3)cc1F`, the Potency is reported as inconclusive: 10.4 µM [inhibitor, single point].
With `O=C(CSc1nc2ccccc2c(=O)n1NC(=O)Cc1ccccc1)NCc1ccco1` the Potency was inconclusive: 18.5 µM [inhibitor, single point].
With `COc1ccc(-c2ccc(=O)n(Cc3ccccc3)n2)cc1` the “activity change, negative = inhibition” value was inactive: 0%.
With `C=CCN(c1ccccc1)S(=O)(=O)c1c(C)[nH]c(=O)[nH]c1=O` the Potency was inconclusive: 2.33 µM [inhibitor, full curve, poor fit].
For `O=C(c1ccc(COCC(F)(F)F)cc1)N1CCN(c2ccccn2)CC1`, the Potency was inconclusive: 0.0026 µM [inhibitor, full curve, poor fit].
In the case of `O=C(CSc1nnc(Cc2ccccc2)o1)N1CCCc2ccccc21`, the Potency is reported as inconclusive: 14.7 µM [inhibitor, single point].
In the case of `Cc1ccccc1S(=O)(=O)Cc1ccc(C(=O)N2CCN(c3ccc(F)cc3)CC2)o1`, the Potency is reported as inconclusive: 10.4 µM [inhibitor, single point].
For `Nc1nsnc1C(=O)NCCO`, the Potency was active: 2.33 µM.
In the case of `CCCCn1cnc2c(sc3nc4c(cc32)CSC(C)(C)C4)c1=O`, the “activity change, negative = inhibition” value is reported as inactive: 218%.
In the case of `Cc1ccccc1-c1ncc(CN2CCC(CO)(CCCc3ccccc3)CC2)cn1`, the Potency is reported as inconclusive: 18.5 µM [inhibitor, single point].
For `CCOc1ccc(NC2c3ccccc3C(=O)N2c2ccc(Cl)cn2)cc1` (stereo unspecified), the “activity change, negative = inhibition” value was inactive: -63.1%.
For `O=C(Nc1ccc2c(c1)OCCO2)C1CCN(C(=O)c2ccc(F)cc2)CC1`, the “activity change, negative = inhibition” value was inactive: 44.5%.
For `CCOc1ccccc1OCCn1ncc2ccc(OC)c(OC)c2c1=O`, the Potency was inconclusive: 0.0029 µM [inhibitor, full curve, poor fit].
For `CCCCCCNC(=O)c1c(O)c2ccccc2[nH]c1=O`, the Potency was inconclusive: 0.0117 µM [inhibitor, full curve, poor fit].
In the case of `CCn1c(SCC(=O)Nc2ccc(F)cc2)nnc1-c1cnccn1`, the Potency is reported as inconclusive: 18.5 µM [inhibitor, single point].
In the case of `CCOc1ccc(-n2cc(C(=O)N3CCCCCC3)c3cc(OC)c(OC)cc3c2=O)cc1`, the Potency is reported as inconclusive: 0.262 µM [inhibitor, full curve, poor fit].
In the case of `CC(=O)Nc1cccc(-c2nc3ccc(NC(C)=O)cc3[nH]2)c1`, the Potency is reported as inconclusive: 1.47 µM [inhibitor, partial curve, poor fit].
In the case of `COc1ccccc1N1CCN(C(=O)c2ccc(Cl)c(S(=O)(=O)N3CCCC3)c2)CC1`, the Potency is reported as inconclusive: 9.28 µM [inhibitor, single point].
With `COc1ccc(-c2nn(-c3ccccc3)cc2/C=N/NC(=O)c2cccc(S(=O)(=O)Nc3ccccc3OC)c2)cc1` the Potency was active: 2.33 µM.
In the case of `Cc1[nH]n(-c2ccccc2)c(=O)c1N=Nc1ccccc1`, the “activity change, negative = inhibition” value is reported as inactive: 32.9%.
For `CCN(CC)CCNC(=O)c1cc(-c2ccc(Br)s2)nc2ccccc12`, the “activity change, negative = inhibition” value was inactive: 2.22%.
For `NS(=O)(=O)c1ccc(NC(=O)c2cccc3ccccc23)cc1`, the Potency was inconclusive: 14.7 µM [inhibitor, partial curve, poor fit].
With `N#Cc1ccc(Cl)cc1NC(=O)CSc1nc2nc(-c3cccs3)cc(C(F)(F)F)c2c(=O)[nH]1` the “activity change, negative = inhibition” value was inactive: 38.3%.
In the case of `Cc1cc(C)cc(NC(=O)C(Nc2ccccc2)c2ccccc2)c1` (stereo unspecified), the Potency is reported as inconclusive: 18.5 µM [inhibitor, single point].
With `CNC(=S)NCc1ccc2[nH]c3c(c2c1)CCCC3` the activity change, negative = inhibition was inactive: 55.8% [at 1.15 µM].
With `Cc1cc(C)cc(NS(=O)(=O)c2cccs2)c1` the “activity change, negative = inhibition” value was inactive: -15.8%.
In the case of `CC1CCN(C(=O)COC(=O)/C=C/c2ccc(Br)o2)CC1`, the “activity change, negative = inhibition” value is reported as inactive: 86.8%.
In the case of `Nc1ccc2nc(SCC(=O)Nc3ccc(N4CCOCC4)c(Cl)c3)sc2c1`, the “activity change, negative = inhibition” value is reported as inactive: 1.87%.
For `C=CCN(CC=C)C(=S)Nc1ccc2nsnc2c1`, the Potency was inconclusive: 5.22 µM [inhibitor, partial curve, poor fit].
With `CCN1CCCC1CN(Cc1cc2ccc(C)cc2[nH]c1=O)C(=S)Nc1ccc(OC)cc1OC` (stereo unspecified) the “activity change, negative = inhibition” value was inactive: 18.8%.
For `CC(c1ccon1)N(C)C(=O)CCc1nnc(CCCCc2ccccc2)o1` (stereo unspecified), the Potency was inconclusive: 18.5 µM [inhibitor, single point].
For `Cc1ccc(S(=O)(=O)N(C)C)cc1NC(=O)c1n[nH]c(=O)c2ccccc12`, the Potency was inconclusive: 6.57 µM [inhibitor, partial curve, poor fit].
With `O=C(NN1C(=O)C2C3C=CC(O3)C2C1=O)c1ccccc1` (stereo unspecified) the Potency was active: 11.7 µM.
With `O=C(c1cccc(S(=O)(=O)N2CCCCC2)c1)N1CCN(S(=O)(=O)c2ccc(F)cc2)CC1` the Potency was active: 9.28 µM.
With `O=S(=O)(c1ccccc1)N1CCN=C1SCc1cccc(Cl)c1` the Potency was active: 11.7 µM.
With `O=C(CSc1nnnn1C1CCCC1)NCCc1ccccc1` the “activity change, negative = inhibition” value was inactive: 30.7%.
With `CCC(C)[C@H](NC(=O)NCCCOC(C)C)C(=O)OC` (stereo partly specified) the Potency was active: 11.7 µM.
With `CCOC(=O)C1=C(C)NC(C)=C(C(=O)OCC)C1/C=C/c1ccccc1OC` the Potency was inconclusive: 1.47 µM [inhibitor, partial curve, poor fit].
With `COCCNC(=O)C(c1ccc(C)cc1)N(C(=O)CCC(=O)Nc1ccccn1)c1ccccc1C` (stereo unspecified) the Potency was active: 8.28 µM.
With `O=C1CC(C(=O)O)(c2ccccc2)c2cccc(F)c21` (stereo unspecified) the “activity change, negative = inhibition” value was inactive: 1.3%.
For `O=C(Cc1cccs1)N1CCN=C1SCc1ccccc1F`, the Potency was inconclusive: 2.62 µM [inhibitor, full curve, poor fit].
In the case of `Cc1ccc(C(C(=O)NC(C)(C)C)N(Cc2ccccc2)C(=O)c2snc(C(N)=O)c2N)o1` (stereo unspecified), the “activity change, negative = inhibition” value is reported as inactive: -0.424%.
With `CCOC(=O)N1CCN(Cc2c(NC(=O)c3ccco3)sc(C)c2C)CC1` the Potency was inconclusive: 16.5 µM [inhibitor, single point].
For `N#Cc1cc(C#N)c(N2CCN(c3cccc(Cl)n3)CC2)nc1N`, the Potency was active: 1.65 µM.
For `COc1ccc(C(=O)OCCN2C(=O)c3ccccc3C2=O)cc1`, the “activity change, negative = inhibition” value was inactive: 44.5%.
With `NC(=O)CNC(=O)[C@@H]1CC2(CC(c3ccc(Cl)cc3)=NO2)CN1C(=O)c1ccc(Br)cc1` (stereo partly specified) the Potency was inconclusive: 0.0029 µM [inhibitor, full curve, poor fit].
In the case of `O=C(NCc1cccnc1)Nc1cccc(Cl)c1`, the Potency is reported as inconclusive: 18.5 µM [inhibitor, single point].
With `CC(NC(=O)C(C)N1CCN(S(=O)(=O)c2ccccc2)CC1)c1ccccc1` (stereo unspecified) the Potency was inconclusive: 18.5 µM [inhibitor, single point].
With `COc1cc(CNCCO)cc(Br)c1OCc1cccs1` the “activity change, negative = inhibition” value was inactive: 33.6%.
With `COc1cccc(C(=O)NCC(=O)N/N=C/c2cccnc2)c1` the “activity change, negative = inhibition” value was inactive: 26.6%.
For `O=[N+]([O-])c1ccc(S(=O)(=O)Nc2nnc(C3CCCCC3)s2)cc1`, the “activity change, negative = inhibition” value was inactive: 22.3%.
For `Cc1cc(OC(C)C(=O)NCCCn2ccnc2)c2c(C)cc(=O)oc2c1` (stereo unspecified), the “activity change, negative = inhibition” value was inactive: -3.43%.
With `COc1ccc(OC)c(C(=O)c2c(C)oc3cc([N+](=O)[O-])c(O)c([N+](=O)[O-])c23)c1` the Potency was inconclusive: 0.0928 µM [inhibitor, full curve, poor fit].
For `CCCOc1ccc(C2Nc3cccc4cccc(c34)N2)cc1`, the Potency was inconclusive: 14.7 µM [inhibitor, single point].
In the case of `COC(=O)c1ccc2c(c1)S(=O)(=O)NC(=NCc1ccco1)S2`, the Potency is reported as inconclusive: 11.7 µM [inhibitor, partial curve, poor fit].
With `Cc1cc(C)cc(-c2nnc(SCC(=O)N3CCN(C(=O)c4ccco4)CC3)o2)c1` the Potency was active: 11.7 µM.
With `CCCNC(=O)Nc1cccc(NC(C)=O)c1` the “activity change, negative = inhibition” value was inactive: 37.6%.
With `CCC(=O)NC(=S)Nc1ccc(NC(=O)c2ccc(OC)cc2)cc1` the Potency was inconclusive: 2.94 µM [inhibitor, single point].
With `Cc1cc(C(=O)CN2CCC(C)CC2)c(C)n1-c1ccccc1F` the “activity change, negative = inhibition” value was inactive: -31.6%.
In the case of `Cc1ccc(Nc2nc(N)c([N+](=O)[O-])c(NCc3ccco3)n2)cc1C`, the Potency is reported as inconclusive: 18.5 µM [inhibitor, single point].
With `O=c1c(C=NCCCO)c(-c2ccccc2)[nH]n1-c1nc2ccccc2s1` the “activity change, negative = inhibition” value was inactive: 26.1%.
For `CC1(C)Cc2c(C#N)c(N3CCN(C(=O)c4ccccc4Cl)CC3)nc(-c3ccco3)c2CS1`, the Potency was active: 1.65 µM.
In the case of `Cc1ccc(C(=O)Nc2cnc3ccccc3c2)cc1`, the “activity change, negative = inhibition” value is reported as inactive: -88.6%.
